Data as given in PubChem BioAssay AID1508597 (Cure First, 2020).

Assay: 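Knock-downs altering ovarian cancer cell survival with or without PARP inhibitor rucaparib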 (primary screen)
Cells: human ovarian carcinoma lines grown from tumours: OCI-P5x (papillary serous) and OCI-C5x (clear cell)
Reagent: siRNA pool against human genes, 1.25 pmol siRNA per well
Duration: 72 h or 96 h, depending on the cell culture
Treatment: rucaparib 20 µM (about IC30) or vehicle, present until read-out
Rucaparib or vehicle: Rucaparib
Cell line: OCI-P5x (serous)
Measured: 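Luminescent ATP-based viability assay read 72 or 96 h after transfection, depending on culture, given as normalised percent viability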
Scale: viability, normalised: higher = more viable cells remaining
Rule for the call: 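Active when normalised viability falls below 80 percent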
Calls: active = viability under 80%; inactive = viability 80% or more
Shown is an unselected part of the about 2,100 reagents, in one setting of the screen. 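Calls flag viability under 80% in either arm, not effects specific to rucaparib; the reference for percent is not stated.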 A number with no mark means an inactive call. A reagent listed more than once was tested more than once; the source does not tell the runs apart. Not stated in the record: the 100% reference.

What is on record for DPF1, technical replicate 1?
viability, normalised (%): 76 (active)

With DPF1, technical replicate 2, what does the deposit list?
viability, normalised (%): 78.6 (active)

For DPF1, technical replicate 3, how do the results read?
viability, normalised (%): 62.9 (active)

For PEA15, technical replicate 1, what does the deposit list?
viability, normalised (%): 48.8 (active)

How did the screen score PEA15, technical replicate 2?
viability, normalised (%): 53.7 (active)

For PEA15, technical replicate 3, what was measured?
viability, normalised (%): 49.9 (active)

What did the screen give for MPP2, technical replicate 1?
viability, normalised (%): 107

What did the screen give for MPP2, technical replicate 2?
viability, normalised (%): 115

What is on record for MPP2, technical replicate 3?
viability, normalised (%): 112

Single entries from above:
DPF1, technical replicate 1, viability, normalised (%): 76 (active)
Entry of PEA15, technical replicate 1 under “viability, normalised (%)”: 48.8 (active)
MPP2, technical replicate 3, viability, normalised (%) = 112

More entries follow.
With PHF12, technical replicate 1, what was measured?
viability, normalised (%): 61 (active)

How did the screen score PHF12, technical replicate 2?
viability, normalised (%): 49.4 (active)

How did the screen score PHF12, technical replicate 3?
viability, normalised (%): 54.6 (active)

What is on record for SPEG, technical replicate 1?
viability, normalised (%): 99.8

How did the screen score SPEG, technical replicate 1?
viability, normalised (%): 68.3 (active)

For SPEG, technical replicate 2, what was measured?
viability, normalised (%): 65.5 (active)

With SPEG, technical replicate 2, what was measured?
viability, normalised (%): 92.9

What is on record for SPEG, technical replicate 3?
viability, normalised (%): 58 (active)

For SPEG, technical replicate 3, how do the results read?
viability, normalised (%): 84.9

For PAK3, technical replicate 1, what was measured?
viability, normalised (%): 68.5 (active)

For PAK3, technical replicate 2, what was measured?
viability, normalised (%): 97.2

What did the screen give for PAK3, technical replicate 3?
viability, normalised (%): 61.9 (active)
